This test concerns P388 leukemia ip, CD2F1 mice, survival T/C. As to the kind of experiment: NCI In Vivo Anticancer Drug Screen. Data for tumor model P388 Leukemia (intraperitoneal) in CD2F1 (CDF1) mice. To be noted: T/C endpoint: median survival time, higher T/C = longer survival.

The list shows only some results of the screen, not a fair sample: its compounds were picked by chemical class. Not every dose and run of a compound is shown. T/C: endpoint of the treated group in % of that of the vehicle group. Where survival is the endpoint, the PubChem record calls one and a half times the control and up active, and a quarter to a half above the control has no call in these data; cut-offs in other NCI protocols can differ. Schedule codes are those of the source, taken here to give the interval after Q, in days (D) or hours (H), and the number of doses after X. Some entries were tested several times; the values are given in rising order. Some entries show no survivor count and are marked so; the dose need not have been tolerated. Some complexes appear as separate parts, the way the source draws them; their charges need not add up.

For the compound `CN(CCCl)CCCl.CN(CCCl)CCCl.[Cl][Pt+2][Cl]`, the T/C (dose: 3.13 mg/kg/injection, schedule: Q01DX009 (ip), vehicle: saline) was 185 % of control [survivor count not shown]; the T/C (dose: 6.25 mg/kg/injection, schedule: Q01DX009 (ip), vehicle: saline) was 219 % of control [survivor count not shown]; the T/C (dose: 12.5 mg/kg/injection, schedule: Q01DX009 (ip), vehicle: saline) is 194 % of control [survivor count not shown]; the T/C (dose: 25.0 mg/kg/injection, schedule: Q01DX009 (ip), vehicle: saline) is 159 % of control [survivor count not shown].

`CN(CCCl)CCCl.O.O.O.[Cl][Ni+][Cl]`: the T/C (dose: 3.13 mg/kg/injection, schedule: Q01DX009 (ip), vehicle: water) was 133 % of control [survivor count not shown]; the T/C (dose: 6.25 mg/kg/injection, schedule: Q01DX009 (ip), vehicle: water) is 141 % of control [survivor count not shown]; the T/C (dose: 11.0 mg/kg/injection, schedule: Q01DX009 (ip), vehicle: saline) was 148 % of control [survivor count not shown]; the T/C (dose: 12.5 mg/kg/injection, schedule: Q01DX009 (ip), vehicle: water) is 153 % of control [survivor count not shown]; the T/C (dose: 16.5 mg/kg/injection, schedule: Q01DX009 (ip), vehicle: saline) was 155 % of control [survivor count not shown]; the T/C (dose: 25.0 mg/kg/injection, schedule: Q01DX009 (ip), vehicle: water) was 162 % of control [survivor count not shown].

In the case of `CN(CCCl)CCCl`, the T/C reads like this: (dose: 0.06 mg/kg/injection, schedule: Q01DX009 (ip), vehicle: saline) 150 [survivor count not shown] and 151 % of control [survivor count not shown]; (dose: 0.12 mg/kg/injection, schedule: Q01DX005 (ip), vehicle: saline, evaluated on day 30) 176 % of control; (dose: 0.12 mg/kg/injection, schedule: Q01DX005 (ip), vehicle: saline, evaluated on day 45) 140 and 170 % of control; (dose: 0.12 mg/kg/injection, schedule: Q01DX005 (ip), vehicle: water) 149 and 169 % of control; (dose: 0.12 mg/kg/injection, schedule: Q01DX009 (ip), vehicle: saline) 170 [survivor count not shown] and 175 % of control [survivor count not shown]; (dose: 0.13 mg/kg/injection, schedule: Q01DX005 (ip), vehicle: saline) 183 and 197 % of control. Besides, the T/C was 178 % of control (dose: 0.25 mg/kg/injection, schedule: Q01DX005 (ip), vehicle: saline, evaluated on day 30); 144, 184, 209 % of control (dose: 0.25 mg/kg/injection, schedule: Q01DX005 (ip), vehicle: saline, evaluated on day 45); 169 and 177 % of control (dose: 0.25 mg/kg/injection, schedule: Q01DX005 (ip), vehicle: water); 166 [survivor count not shown] and 172 % of control [survivor count not shown] (dose: 0.25 mg/kg/injection, schedule: Q01DX009 (ip), vehicle: saline); 169 and 178 % of control (dose: 0.25 mg/kg/injection, schedule: Q04DX003 (ip), vehicle: saline); 150 % of control (dose: 0.39 mg/kg/injection, schedule: Q04DX002 (ip), vehicle: saline). The T/C is 181 % of control (dose: 0.5 mg/kg/injection, schedule: Q01DX005 (ip), vehicle: saline, evaluated on day 30); 163, 209, 214, 233 % of control (dose: 0.5 mg/kg/injection, schedule: Q01DX005 (ip), vehicle: saline, evaluated on day 45); 177 % of control (dose: 0.5 mg/kg/injection, schedule: Q01DX005 (ip), vehicle: water); 187 [survivor count not shown] and 201 % of control [survivor count not shown] (dose: 0.5 mg/kg/injection, schedule: Q01DX009 (ip), vehicle: saline); 186 and 200 % of control (dose: 0.5 mg/kg/injection, schedule: Q04DX003 (ip), vehicle: saline); 164 % of control (dose: 0.65 mg/kg/injection, schedule: Q04DX002 (ip), vehicle: saline). Also, the T/C is, setting by setting: (dose: 1.0 mg/kg/injection, schedule: Q01DX005 (ip), vehicle: saline, evaluated on day 30) 163 % of control; (dose: 1.0 mg/kg/injection, schedule: Q01DX005 (ip), vehicle: saline, evaluated on day 45) 153, 175, 281 % of control; (dose: 1.0 mg/kg/injection, schedule: Q01DX005 (ip), vehicle: water) 235 % of control; (dose: 1.0 mg/kg/injection, schedule: Q01DX009 (ip), vehicle: saline) 162 [survivor count not shown] and 218 % of control [survivor count not shown]; (dose: 1.0 mg/kg/injection, schedule: Q04DX003 (ip), vehicle: saline) 205 and 215 % of control; (dose: 1.08 mg/kg/injection, schedule: Q04DX002 (ip), vehicle: saline) 174 % of control. Besides, the T/C (dose: 1.8 mg/kg/injection, schedule: Q04DX002 (ip), vehicle: saline) was 178 % of control; the T/C (dose: 2.0 mg/kg/injection, schedule: Q01DX005 (ip), vehicle: saline) is 155 % of control; the T/C (dose: 2.0 mg/kg/injection, schedule: Q04DX003 (ip), vehicle: saline) is 213 % of control; the T/C (dose: 3.0 mg/kg/injection, schedule: Q04DX002 (ip), vehicle: saline) was 100 % of control.

The values above are taken from PubChem BioAssay AID330 (DTP/NCI, 2004).
